At least one compound was matched to its structure with a doubt left.
Columns and labels:
[1] = tested on: liver organoid; test: Candidate drugs on liver organoid in multi-organ NASH organoid model (chip); format: cell-based, mouse; details: oleic acid 500 μM + drug 50 μM, 3 days
Procedure: (§1) A multi-organ NASH model was constructed by applying not only conventional Matrigel, a commercially available culture scaffold, but also a decellularized tissue-derived hydrogel scaffold to culture of each organoid in a multi-organ device. Liver and pancreas organoids were obtained by extracting adult stem cells from a mouse tissue, encapsulated in a decellularized liver tissue-derived matrix (6 mg/ml) and a decellularized pancreas tissue-derived matrix (4 mg/ml), respectively, at a cell density of 70,000 cells/30 μL gel, and cultured. An intestinal organoid was obtained by extracting intestinal crypts from a mouse intestinal tissue and encapsulated in a decellularized intestinal tissue-derived matrix (2 mg/ml) at a cell density of 800 crypts/30 μL gel, and cultured. […] The cardiac organoid was cultured on a hydrogel (20 organoids/70 μL gel bed) prepared by crosslinking of a decellularized cardiac tissue-derived matrix (5 mg/ml) in the form of a 70 μL gel bed at the bottom of the device. The decellularized matrix for culturing each organoid was applied at the optimal concentration for differentiation of each organoid as determined through previous research.
Obeticholic acid (OCA), a semi-synthetic bile acid analog, is an agonist for FXR (farnesoid X receptor) to regulate bile acid metabolism, inflammation, fibrosis, and sugar/lipid metabolism. […] Elafibranor (Ela), a dual agonist for PPARα/δ, is a drug that inhibits fatty acid biosynthesis and glucose biosynthesis in the liver and has been used as a drug for cardiometabolic diseases. Liraglutide (Lira), an agonist for glucagon-like peptide-1 (GLP-1), is a drug that has been used to treat diabetes.

[2] = tested on: intestinal organoid; test: Candidate drugs on intestinal organoid in multi-organ NASH organoid model (chip); format: cell-based, mouse; details: oleic acid 500 μM + drug 50 μM, 3 days in liver chamber
Procedure: as §1

[3] = tested on: cardiac organoid; test: Candidate drugs on cardiac organoid in multi-organ NASH organoid model (chip); format: cell-based, mouse; details: oleic acid 500 μM + drug 50 μM, 3 days in liver chamber
Procedure: as §1

[4] = tested on: human iPSC-derived cardiac organoids; details: immunofluorescence staining; oleic acid 500 μM + drug 50 μM, 3 days in liver chamber
[5] = tested on: human iPSC-derived liver organoids; test: Candidate drugs on hiPSC-derived liver organoids in multi-organ NASH model; format: cell-based; details: oleic acid 500 μM + drug 50 μM, 3 days
[6] = tested on: human iPSC-derived intestinal organoids; details: immunofluorescence staining, oleic acid 500 μM + drug 50 μM, 3 days in liver chamber
[7] = tested on: pancreas organoid; test: Candidate drugs on pancreas organoid in multi-organ NASH organoid model (chip); format: cell-based, mouse; details: quantitative PCR; oleic acid 500 μM + drug 50 μM, 3 days in liver chamber
Procedure: as §1

[8] = tested on: human iPSC-derived pancreas organoids; details: immunofluorescence staining; oleic acid 500 μM + drug 50 μM, 3 days in liver chamber

CCCCCCCCCCCCCCCC(=O)N[C@@H](CCC(=O)NCCCC[C@H](NC(=O)[C@H](C)NC(=O)[C@H](C)NC(=O)[C@H](CCC(N)=O)NC(=O)CNC(=O)[C@H](CCC(=O)O)NC(=O)[C@H](CC(C)C)NC(=O)[C@H](Cc1ccc(O)cc1)NC(=O)[C@H](CO)NC(=O)[C@H](CO)NC(=O)[C@@H](NC(=O)[C@H](CC(=O)O)NC(=O)[C@H](CO)NC(=O)[C@@H](NC(=O)[C@H](Cc1ccccc1)NC(=O)[C@@H](NC(=O)CNC(=O)[C@H](CCC(=O)O)NC(=O)[C@H](C)NC(=O)[C@@H](N)Cc1cnc[nH]1)[C@@H](C)O)[C@@H](C)O)C(C)C)C(=O)N[C@@H](CCC(=O)O)C(=O)N[C@@H](Cc1ccccc1)C(=O)N[C@H](C(=O)N[C@@H](C)C(=O)N[C@@H](Cc1c[nH]c2ccccc12)C(=O)N[C@@H](CC(C)C)C(=O)N[C@H](C(=O)N[C@@H](CCCNC(=N)N)C(=O)NCC(=O)N[C@@H](CCCNC(=N)N)C(=O)NCC(=O)O)C(C)C)[C@@H](C)CC)C(=O)O [Lira, Liraglutide]
low-density cholesterol (LDL) levels in the liver organoids ([1]; cholesterol analysis of disrupted organoids, vs No Treatment (NT)): an improvement in LDL levels compared to the No Treatment (NT) group
expression levels of HNF4A and ALB, hepatic differentiation markers ([1]; quantitative PCR): no significant effect on hepatic differentiation and functional recovery
expression of α-SMA and COL1A1, fibrosis and drug toxicity-related markers ([1]; quantitative PCR): improved
α-SMA expression ([1]; quantitative PCR): effective in reducing an increase of α-SMA caused by NASH

CC[C@H]1[C@@H](O)[C@@H]2[C@H](CC[C@]3(C)[C@@H]([C@H](C)CCC(=O)O)CC[C@@H]23)[C@@]2(C)CC[C@@H](O)C[C@@H]12 [OCA, Obeticholic acid]
expression level of MUC2, an intestinal differentiation marker ([2]; immunofluorescence staining): improved to some extent
expression level of FGF15 ([2]; immunostaining): recovered to some extent
expression level of OCLN, a tight junction marker of the gut barrier ([2]; quantitative PCR): recovered to some extent
expression levels of CHGA and MUC2, intestinal differentiation markers ([2]; quantitative PCR): recovered to some extent
gene expression of FGF15 in the intestinal organoid ([2]; quantitative PCR): recovered to a significant extent
expression level of FGF15 ([1]; immunostaining): recovered only in the OCA-treated group
expression levels of HNF4A and ALB, hepatic differentiation markers ([1]; quantitative PCR): recovered to some extent
expression of α-SMA and COL1A1, fibrosis and drug toxicity-related markers ([1]; quantitative PCR): improved
expression of CTNT and F-actin, myocardial differentiation and actin-filament markers ([3]; immunostaining): recovered to some extent
expression level of ACTC1, a cardiac differentiation marker ([3]; quantitative PCR): recovered
expression levels of CTNT and F-actin, myocardial differentiation and actin-filament markers [4]: recovered to some extent
expression level of FGF19 ([5]; immunofluorescence staining): recovered
expression level of α-SMA, a fibrosis and drug toxicity-related marker ([5]; immunofluorescence staining): decreased to some extent
fatty acid accumulation (BODIPY staining) [5]: partially decreased
structure of the liver organoids ([5]; optical microscopy): some of the cells in the outer part died
expression level of NPC1L1 [6]: did not decrease
expression level of the differentiation marker, MUC2 ([6]; vs No Treatment group): recovered to some extent
expression level of KRT19, a pancreatic exocrine cell marker [7]: recovered to some extent
expression level of PDX1, an endocrine cell marker [7]: not recovered
expression levels of insulin and NKX6.1, pancreatic differentiation markers [8]: greatly recovered

— patent US20240142438A1, “MULTI-ORGAN MODEL” (CELLARTGEN INC., priority 2021, published 2024)
